# PMC4481955, “Sensitive, Fast, and Specific Immunoassays for Methyltestosterone Detection” (Sensors (Basel, Switzerland), 2015)
# Where “and” joins values, the source holds several entries; their conditions need not be identical. Equal entries are not always repeated.
# System: GNPs-labelled MT mAb
# Assay: immunochromatographic strip assay
# Format: binding, mouse
smiles,measurement,setting,value
C[C@]12CCC(=O)C=C1CC[C@@H]1[C@@H]2CC[C@@]2(C)[C@H]1CC[C@]2(C)O [Methyltestosterone],visual cut-off value,"in PBS, listed as MT",1 ng/mL and 1.25 ng/mL
same,visual cut-off value,in fish feed,2.5 ng/g
same,visual cut-off value,in pig feed,2.5 ng/g
